PubChem BioAssay AID1259405, NCATS – 2018
Shown is an unselected part of about 50,000 reagents tested. About 4,000 of all reagents (8%) were called active. 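Mouse siRNA library applied to hamster cells; one well for each siRNA.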 The numbers tell different reagents against one gene apart.

- Screen: 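Knock-downs that lift recombinant protein yield in hamster ovary cells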 (primary screen)
- Cells: Chinese hamster CHO-K1 ovary cells with stable secreted eGFP expression
- Knock-down reagent: single siRNA against mouse genes, 0.8 pmol siRNA per well (2 µl of 400 nM stock)
- Time to read-out: 3 days
- Measurement: 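Per-well intracellular GFP measured by laser scanning cytometry, plus viability from ATP luminescence, each relative to plate median of non-targeting control wells, in %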
- Direction: GFP, % of control: higher = more GFP per well, higher productivity; viability (ATP), % of control: higher = more viable cells (more ATP)
- Call rule: 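a knock-down is called active if GFP reaches 120% or more of non-targeting control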

gene | reagent no. | GFP, % of control | viability (ATP), % of control | call
Kcnj16 | 1 | 50.4 | 56.1 | inactive
Kcnj16 | 2 | 58.7 | 60.4 | inactive
Kcnj16 | 3 | 122 | 74.4 | active
Syap1 | 1 | 112 | 83.2 | inactive
Syap1 | 2 | 104 | 111 | inactive
Syap1 | 3 | 98.1 | 111 | inactive
Txnl4b | 1 | 58.7 | 58 | inactive
Txnl4b | 2 | 100 | 77.7 | inactive
Txnl4b | 3 | 69.4 | 98.8 | inactive
Nr0b1 | 1 | 96.3 | 90.4 | inactive
Nr0b1 | 2 | 55.5 | 62.4 | inactive
Nr0b1 | 3 | 72.7 | 91 | inactive
Telo2 | 1 | 72.8 | 116 | inactive
Telo2 | 2 | 28.6 | 53.1 | inactive
Telo2 | 3 | 45.1 | 44.4 | inactive
Ptger3 | 1 | 160 | 107 | active
Ptger3 | 2 | 73.1 | 110 | inactive
Ptger3 | 3 | 43 | 60.1 | inactive
Sin3b | 1 | 64.6 | 70.4 | inactive
Sin3b | 2 | 96.5 | 70.3 | inactive
Sin3b | 3 | 59.3 | 44.3 | inactive
Vipr1 | 1 | 157 | 101 | active
Vipr1 | 2 | 36.8 | 63.8 | inactive
Vipr1 | 3 | 36.3 | 59 | inactive
Por | 1 | 41.9 | 81.7 | inactive
Por | 2 | 87.7 | 45.5 | inactive
Por | 3 | 79.2 | 64.9 | inactive
Skic2 | 1 | 52.2 | 50.6 | inactive
Skic2 | 2 | 62.3 | 31.5 | inactive
Skic2 | 3 | 67 | 45.6 | inactive
Epha6 | 1 | 40.2 | 50.3 | inactive
Epha6 | 2 | 81 | 97.7 | inactive
Epha6 | 3 | 60.5 | 73.5 | inactive
Sox13 | 1 | 50.4 | 65.3 | inactive
Sox13 | 2 | 20.9 | 30.5 | inactive
Sox13 | 3 | 79.8 | 91.3 | inactive

The list goes on, starting with the last 4 of the part before.
gene | reagent no. | GFP, % of control | viability (ATP), % of control | call
Epha6 | 3 | 60.5 | 73.5 | inactive
Sox13 | 1 | 50.4 | 65.3 | inactive
Sox13 | 2 | 20.9 | 30.5 | inactive
Sox13 | 3 | 79.8 | 91.3 | inactive
Tmem44 | 1 | 71.6 | 61.4 | inactive
Tmem44 | 2 | 40.4 | 42.8 | inactive
Tmem44 | 3 | 76.3 | 83.8 | inactive
Tusc1 | 1 | 80 | 77.3 | inactive
Tusc1 | 2 | 51.3 | 26 | inactive
Tusc1 | 3 | 121 | 82.4 | active
Prss46 | 1 | 88.6 | 58.4 | inactive
Prss46 | 2 | 88.1 | 86.3 | inactive
Prss46 | 3 | 57 | 82.8 | inactive
Brf2 | 1 | 60.6 | 72.2 | inactive
Brf2 | 2 | 96.2 | 83.7 | inactive
Ccdc40 | 1 | 55.7 | 72.6 | inactive
Ccdc40 | 2 | 71.9 | 87 | inactive
Ccdc40 | 3 | 24.8 | 41.2 | inactive
Gm11545 | 1 | 179 | 176 | active
Gm11545 | 2 | 97.1 | 96.8 | inactive
Gm11545 | 3 | 59.6 | 82.4 | inactive
2200002J24Rik | 1 | 55 | 33.4 | inactive
2200002J24Rik | 2 | 44.8 | 83.2 | inactive
2200002J24Rik | 3 | 71.2 | 98.7 | inactive
A630001G21Rik | 1 | 82.8 | 87.9 | inactive
A630001G21Rik | 2 | 100 | 90.1 | inactive
A630001G21Rik | 3 | 62 | 70.3 | inactive
Samd8 | 1 | 76.9 | 71.4 | inactive
Samd8 | 2 | 73.6 | 54.9 | inactive
Samd8 | 3 | 87.8 | 92 | inactive
Ss18l1 | 1 | 102 | 97.3 | inactive
Ss18l1 | 2 | 112 | 101 | inactive
Nol4l | 1 | 117 | 57.4 | inactive
Nol4l | 2 | 69.5 | 84.4 | inactive
Nol4l | 3 | 172 | 151 | active
Fam24b | 1 | 82.8 | 97.6 | inactive
Fam24b | 2 | 66.6 | 88.6 | inactive
Fam24b | 3 | 66.7 | 74.6 | inactive
Scmh1 | 1 | 46.3 | 52.2 | inactive
Scmh1 | 2 | 102 | 80.6 | inactive
Scmh1 | 3 | 41.2 | 49.2 | inactive
Dhdh | 1 | 113 | 98.7 | inactive
Dhdh | 2 | 68.5 | 72.8 | inactive
Dhdh | 3 | 72.8 | 74 | inactive
Cdc73 | 1 | 56.2 | 71.5 | inactive
Cdc73 | 2 | 40.6 | 37.7 | inactive
Cdc73 | 3 | 156 | 107 | active
Clic4 | 1 | 100 | 140 | inactive
Clic4 | 2 | 84.8 | 77.9 | inactive
Clic4 | 3 | 28.1 | 18.2 | inactive
Slc10a1 | 1 | 136 | 67.2 | active
Slc10a1 | 2 | 57.5 | 52.2 | inactive
Slc10a1 | 3 | 76.9 | 48.5 | inactive
Mei1 | 1 | 109 | 60.8 | inactive
Mei1 | 2 | 91.7 | 84.4 | inactive
Mei1 | 3 | 85.7 | 80.9 | inactive
Nox3 | 1 | 85.7 | 47.4 | inactive
Nox3 | 2 | 43 | 55.5 | inactive
Nox3 | 3 | 65.4 | 64 | inactive
Zfr | 1 | 128 | 131 | active
Zfr | 2 | 77.4 | 97.6 | inactive
Zfr | 3 | 109 | 60.6 | inactive
Tlcd2 | 1 | 66.7 | 74.5 | inactive
Tlcd2 | 2 | 95.4 | 65.3 | inactive
Tlcd2 | 3 | 98.8 | 117 | inactive
Gpr157 | 1 | 43.1 | 48 | inactive
Gpr157 | 2 | 62.5 | 75.4 | inactive
Gpr157 | 3 | 69.8 | 74.2 | inactive
Pkdcc | 1 | 124 | 74.8 | active
Pkdcc | 2 | 50.6 | 72.7 | inactive
Pkdcc | 3 | 27.7 | 39.3 | inactive
Zfp40 | 1 | 52.7 | 62.9 | inactive
Zfp40 | 2 | 73.4 | 87.4 | inactive
Zfp40 | 3 | 71.8 | 77.9 | inactive
Siah2 | 1 | 76 | 81 | inactive
Siah2 | 2 | 84.3 | 69.5 | inactive
Siah2 | 3 | 52.7 | 83.8 | inactive
